Test results: ChEMBL document CHEMBL1154351, “Aspergillusol A, an alpha-glucosidase inhibitor from the marine-derived fungus Aspergillus aculeatus” (J Nat Prod, 2009)

Test system: A549
Assay: Cytotoxicity against human A549 cells after 4 days by MTT assay
Assay type: functional, cell-based
Settings: A549, 96 h
In short: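 MTT read-out of viability in human HepG2, HuCCA-1 and A549 cancer cell lines, with doxorubicin as reference drug; IC50 values determined.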

SMILES: COc1cccc2c1C(=O)c1c(O)c3c(c(O)c1C2=O)C[C@@](O)(C(=O)CO)C[C@@H]3O[C@H]1C[C@H](N)[C@H](O)[C@H](C)O1 [DOXORUBICIN]
- IC50: 400 nM
